# At least one compound was matched to its structure with a doubt left.
# System: Exophiala dermatitidis CA01
# Experiment: Broth microdilution chequerboard analysis of Lynovex (NM001) in combination with clinical antifungals
# Format: cell-based
# Settings: Range; antifungal in isolation; 144 h, 35° C.
# Protocol: The aim of the experiment was to determine the effect of Lynovex (NM001) on the antifungal drug susceptibility of Exophiala dermatitidis CA01. Microtitre plates were prepared following CLSI recommendations for broth microdilution chequerboard method. These plates contained a serial doubling dilution of Lynovex (NM001) combined with serial doubling dilutions of antifungals drugs; Fluconazole, Itraconazole, Caspofungin and Amphotericin B. […] These were incubated at 35° C. and read at 72 h, 96 h, 120 h and 144 h on the BioTek plate reader. […] Three independent E. dermatitidis CA01 cultures were grown on PDA slope for 6 days at 35° C. • 7. Cultures were removed from incubator. 2 ml sterile 0.15M NaCl added to the overnight culture and cells harvested from the surface of the agar. Cells placed in fresh bijou tube. • 8. The cultures were allowed to rest for up to 10 minutes, allowing any hyphae to settle to the bottom. The top layer of conidia was removed into fresh bijou. Hyphae were discarded. • 9. […] This is continued to F12 where 100 μl is removed and discarded. • f. This dilution series was repeated in rows G-H for the remaining 2 cultures • g. Plate read at OD530 on BioTek • h. […] This preparation step occurs in two parts. […] The plate is read in the BioTek at OD530. • 9. […] OD530 is then read at 72 h, 96 h, 120 h and 144 h and raw data processed using Microsoft Excel. • 11. […]
compound,measurement,value
CCC(C)n1ncn(-c2ccc(N3CCN(c4ccc(OCC5COC(Cn6cncn6)(c6ccc(Cl)cc6Cl)O5)cc4)CC3)cc2)c1=O (stereo not shown) [Itraconazole],Antifungal MIC50,4->16

# From patent US20160102052A1, “Use of Cysteamine in Treating Infections caused by Yeasts/Moulds” (priority 2014, published 2016)
